This is an account of results in the supplement of paper PMC11732987, “Enantioselective OTUD7B fragment discovery through chemoproteomics screening and high-throughput optimisation” (Communications Chemistry, 2025).

Sequences of proteins named here, by UniProt entry; tags and fusion partners are left off. A change or cut given only in a name is not applied to a line headed by its entry.
UniProt Q13371: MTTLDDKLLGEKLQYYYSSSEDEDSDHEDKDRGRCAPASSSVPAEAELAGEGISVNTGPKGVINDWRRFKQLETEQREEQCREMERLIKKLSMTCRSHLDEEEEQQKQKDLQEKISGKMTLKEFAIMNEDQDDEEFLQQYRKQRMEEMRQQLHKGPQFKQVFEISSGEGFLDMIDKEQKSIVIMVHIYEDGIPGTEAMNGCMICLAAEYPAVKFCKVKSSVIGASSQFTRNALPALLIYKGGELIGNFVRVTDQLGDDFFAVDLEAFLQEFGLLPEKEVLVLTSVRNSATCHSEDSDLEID

This is one part of the list. The data scatter; read single values as rough.

In one experiment the target is T1, PDCL C35 (UniProt Q13371).
T1 sequence (whole entry): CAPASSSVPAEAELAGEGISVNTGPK
Put plainly: log2 mean competition ratio of IA-DTB cysteine labelling (DMSO/compound) (log2 ratio); higher = stronger cysteine engagement by compound. As to conditions: 50 µM; treatment time: 4 h; cell line lysate: HEK293T. The method, then:
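IA-DTB competitive cysteine chemoproteomics in HEK293T RIPA lysate. Lysates were treated with compound 29 or 30 at 50 or 200 µM for 4 h, then IA-DTB (500 µM, 1 h), trypsin-digested, NeutrAvidin-enriched and analysed by diaPASEF. Competition ratio = intensity DMSO / intensity compound (n=4 treated, n=64 DMSO); binding: mean log2 CR ≥ 1 and p ≤ 0.05 plus QC filters. Target is the cysteine site.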
`O=C(CCl)N[C@@H]1CCCc2ccccc21`: the “log2 mean competition ratio” value is -0.071.

Regarding `O=C(CCl)N[C@H]1CCCc2ccccc21`, the “log2 mean competition ratio” value is -0.412.

Staying with this experiment, now noted: 200 µM; treatment time: 4 h; cell line lysate: HEK293T.
As to `O=C(CCl)N[C@@H]1CCCc2ccccc21`, the “log2 mean competition ratio” value was -0.122.

Turning to `O=C(CCl)N[C@H]1CCCc2ccccc21`, the “log2 mean competition ratio” value is -0.127.
